Results deposited as PubChem BioAssay AID652259 (Drosophila RNAi Screening Center, 2013)
Purpose: 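Identify new Wingless signalling regulators in fly cells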 (primary screen). System: Drosophila clone 8 imaginal disc epithelial cells. Reagent: long dsRNA against Drosophila genes. Treatment: pathway stimulated by co-transfected Wingless expression plasmid. Measured: 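Firefly luciferase from a tcf-site Wingless reporter, measured alongside co-transfected Renilla luciferase that tracks transfection; pathway stimulated by a Wingless plasmid; the firefly-to-Renilla ratio is not deposited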. Direction: firefly reporter light: higher = more Wg reporter light, before normalisation; Renilla control light: higher = more transfected or surviving cells. Hit rule: 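a knock-down is a candidate when at least two out of four statistical tests show it departing from its plate mean; one test alone signals a weak candidate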. Calls: active = candidate regulator (raises or lowers reporter); inactive = not a candidate.
The screen tested about 22,000 reagents; this is a random part of those that have a named target and a result. In the full data, 233 (1.1%) got an active call. 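Light values are raw, unnormalised plate reads; the ratio scores behind the reporter calls were not deposited.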 Names joined by + are all predicted targets of the reagent. Not stated in the record: the amount of reagent, the time to read-out, the dose of the treatment.

no.	target	DRSC id	reporter change call, replicate 1	firefly reporter light, replicate 1	firefly reporter light, replicate 2	Renilla control light, replicate 1	Renilla control light, replicate 2	activity call
1	CG1246	DRSC08275	Wg reporter activity raised	5581		2556		inactive
2	CG13884	DRSC08354	Wg reporter activity lowered	3469		3174		inactive
3	CG2211	DRSC08559		4252		1925		inactive
4	CG7565	DRSC10881		3728		1414		inactive
5	CG6380	DRSC02950		3108	7104	1389	3127	inactive
6	Xpd (Xeroderma pigmentosum D)	DRSC04666		23784		2633		inactive
7	CG11147	DRSC02129		1729	6003	887	2637	inactive
8	Tsp42Eb + CG30160	DRSC04961		28181		12517		inactive
9	Tsp42Eb + CG30160	DRSC06791		3288	7610	896	3356	inactive
10	CG42512 + CG32573	DRSC19532		15680		7664		inactive
11	CG42512 + CG32573	DRSC19906		4273	9020	1980	2756	inactive
12	CG42512 + CG32573	DRSC22782		8.76e5	6.57e5	3.69e5	140	inactive
13	CG32772	DRSC18052	Wg reporter activity raised	28039		13313		active
14	CG32772	DRSC18406		4115	6608	1744	1682	inactive
15	CG32772	DRSC22349		6.19e5	6.58e5	2.39e5	2.34e5	inactive
16	CG16965	DRSC02547		2587	6704	1018	2941	inactive
17	fu (fused)	DRSC20333		20593		8792		inactive
18	CG3515	DRSC00609		3157	5756	1115	2598	inactive
19	CG11227	DRSC20476		17505		10709		inactive
20	RtcB (RtcB RNA ligase)	DRSC03280		3556	9428	1093	3410	inactive
21	CG31674	DRSC03208		1962	9610	890	4368	inactive
22	Su(var)2-10 (Suppressor of variegation 2-10)	DRSC07721	Wg reporter activity raised	27276		2288		active
23	Ir56c (Ionotropic receptor 56c)	DRSC06544		5962		2006		inactive
24	ImpE2 (Ecdysone-inducible gene E2)	DRSC08665		3177		1283		inactive
25	coro (Coronin)	DRSC05007		16977		5488		inactive
26	coro (Coronin)	DRSC21417		5.47e5	6.00e5	2.29e5	2.36e5	inactive
27	pnut (peanut)	DRSC07666		10080		2629		inactive
28	Osi23 (Osiris 23)	DRSC15074		5100		2571		inactive
29	mlt (retired record)	DRSC06120		8804		3337		inactive
30	Sh (Shaker)	DRSC19214		6633		427		inactive
31	Sh (Shaker)	DRSC19220		5600	7.57e5	1884	3.41e5	inactive
32	Sh (Shaker)	DRSC19785		27841		11142		inactive
33	Sh (Shaker)	DRSC20055		20824		10151		inactive
34	Sh (Shaker)	DRSC22567		7.84e5	8.27e5	3.42e5	2.98e5	inactive
35	CG10365	DRSC14234		14688		12392		inactive
36	cpa (capping protein alpha)	DRSC04080		7672		2245		inactive
37	Cfp1 (CXXC finger protein 1)	DRSC18128		20026		9956		inactive
38	mus81	DRSC18180		23885		16576		inactive
39	mus81	DRSC18644		19448		14114		inactive
40	Csk (C-terminal Src kinase)	DRSC12861		2444		1092		inactive
41	Csk (C-terminal Src kinase)	DRSC15223		3843		1376		inactive
42	GstD6 (Glutathione S transferase D6)	DRSC16687		12752		3629		inactive

Part of the list above in another layout:
CG6380 [DRSC02950]
- firefly reporter light, replicate 1: 3108
- firefly reporter light, replicate 2: 7104
- Renilla control light, replicate 1: 1389
- Renilla control light, replicate 2: 3127
- activity call: inactive

Xpd (Xeroderma pigmentosum D) [DRSC04666]
- firefly reporter light, replicate 1: 23784
- Renilla control light, replicate 1: 2633
- activity call: inactive

CG11147 [DRSC02129]
- firefly reporter light, replicate 1: 1729
- firefly reporter light, replicate 2: 6003
- Renilla control light, replicate 1: 887
- Renilla control light, replicate 2: 2637
- activity call: inactive

Tsp42Eb + CG30160 [DRSC04961]
- firefly reporter light, replicate 1: 28181
- Renilla control light, replicate 1: 12517
- activity call: inactive

Tsp42Eb + CG30160 [DRSC06791]
- firefly reporter light, replicate 1: 3288
- firefly reporter light, replicate 2: 7610
- Renilla control light, replicate 1: 896
- Renilla control light, replicate 2: 3356
- activity call: inactive

CG42512 + CG32573 [DRSC19532]
- firefly reporter light, replicate 1: 15680
- Renilla control light, replicate 1: 7664
- activity call: inactive

CG42512 + CG32573 [DRSC19906]
- firefly reporter light, replicate 1: 4273
- firefly reporter light, replicate 2: 9020
- Renilla control light, replicate 1: 1980
- Renilla control light, replicate 2: 2756
- activity call: inactive

CG42512 + CG32573 [DRSC22782]
- firefly reporter light, replicate 1: 8.76e5
- firefly reporter light, replicate 2: 6.57e5
- Renilla control light, replicate 1: 3.69e5
- Renilla control light, replicate 2: 140
- activity call: inactive

CG32772 [DRSC18052]
- reporter change call, replicate 1: Wg reporter activity raised
- firefly reporter light, replicate 1: 28039
- Renilla control light, replicate 1: 13313
- activity call: active

CG32772 [DRSC18406]
- firefly reporter light, replicate 1: 4115
- firefly reporter light, replicate 2: 6608
- Renilla control light, replicate 1: 1744
- Renilla control light, replicate 2: 1682
- activity call: inactive

CG32772 [DRSC22349]
- firefly reporter light, replicate 1: 6.19e5
- firefly reporter light, replicate 2: 6.58e5
- Renilla control light, replicate 1: 2.39e5
- Renilla control light, replicate 2: 2.34e5
- activity call: inactive

CG16965 [DRSC02547]
- firefly reporter light, replicate 1: 2587
- firefly reporter light, replicate 2: 6704
- Renilla control light, replicate 1: 1018
- Renilla control light, replicate 2: 2941
- activity call: inactive

fu (fused) [DRSC20333]
- firefly reporter light, replicate 1: 20593
- Renilla control light, replicate 1: 8792
- activity call: inactive

CG3515 [DRSC00609]
- firefly reporter light, replicate 1: 3157
- firefly reporter light, replicate 2: 5756
- Renilla control light, replicate 1: 1115
- Renilla control light, replicate 2: 2598
- activity call: inactive

CG11227 [DRSC20476]
- firefly reporter light, replicate 1: 17505
- Renilla control light, replicate 1: 10709
- activity call: inactive

Additional entries follow:
no.	target	DRSC id	reporter change call, replicate 1	firefly reporter light, replicate 1	firefly reporter light, replicate 2	Renilla control light, replicate 1	Renilla control light, replicate 2	activity call
43	Zip88E (Zinc/iron regulated transporter-related protein 88E)	DRSC15562		15325		2304		inactive
44	lncRNA:Hsromega (Heat shock RNA omega)	DRSC22875		5.18e5	5.73e5	2.39e5	68896	inactive
45	Cyp4p2 (Cytochrome P450 4p2)	DRSC07373		7765		2068		inactive
46	Mob3 (MOB kinase activator 3)	DRSC02791		3200	4779	1044	2147	inactive
47	Drice (Death related ICE-like caspase)	DRSC16715		4506	10352	1520	3127	inactive
48	krz (kurtz)	DRSC16979		27602		14429		inactive
49	CG7220	DRSC05235		14690		11632		inactive
50	CG7220	DRSC07018		1989	7106	681	3181	inactive
51	ERp44 (Endoplasmic reticulum protein 44)	DRSC20215		1513	5153	679	1869	inactive
52	Grl43a (Gustatory receptor-like 43a)	DRSC06383		2187	9003	834	2620	inactive
53	CG42553	DRSC08356		5772		2329		inactive
54	ITP (Ion transport peptide)	DRSC04222		2525	6920	761	2176	inactive
55	Zasp66 (Z band alternatively spliced PDZ-motif protein 66)	DRSC08932		3665		1379		inactive
56	Zasp66 (Z band alternatively spliced PDZ-motif protein 66)	DRSC10631		5301		2938		inactive
57	Zasp66 (Z band alternatively spliced PDZ-motif protein 66)	DRSC10632		1892	7728	1136	3322	inactive
58	CG5646	DRSC15853		2154	6457	839	2108	inactive
59	inaE (inactivation no afterpotential E)	DRSC19376		23857		14615		inactive
60	inaE (inactivation no afterpotential E)	DRSC19377		1861	6375	1121	2583	inactive
61	inaE (inactivation no afterpotential E)	DRSC19379		21869	7.23e5	19163	3.27e5	inactive
62	inaE (inactivation no afterpotential E)	DRSC19726		25673		14871		inactive
63	CG10809	DRSC09802		8525		3106		inactive
64	RabX4	DRSC22189		6.43e5	6.91e5	3.11e5	2.88e5	inactive
65	CG11588	DRSC09145		2733		1529		inactive
66	CG11588	DRSC09846		9468		4120		inactive
67	CG14085	DRSC10089		18248		6167		inactive
68	CG5808	DRSC14124		1928	5004	848	1433	inactive
69	CG42260	DRSC04172		2603	6432	848	2936	inactive
70	CG42260	DRSC04385		3676	8426	672	3179	inactive
71	CG13640	DRSC14639		14546		14098		inactive
72	Tsp42Eq (Tetraspanin 42Eq)	DRSC06180		2216	6176	662	2509	inactive
73	CG14005	DRSC02337		9634		4077		inactive
74	blot (bloated tubules)	DRSC09485		3201		1273		inactive
75	blot (bloated tubules)	DRSC11328		5958		2177		inactive
76	Spc105R (Spc105-related)	DRSC11663		14161		2996		inactive
77	CG2533	DRSC19855		26325		16048		inactive
78	wcy (wacky)	DRSC20132		3584	12932	876	1804	inactive
79	CG13096	DRSC02198		1754	3108	818	2275	inactive
80	Spn43Ad (Serpin 43Ad)	DRSC06770		1584	5373	420	2465	inactive
81	ATPsynG (ATP synthase, subunit G)	DRSC02928		2362	8312	992	4146	inactive
82	mre11 (meiotic recombination 11)	DRSC03570		20928		7756		inactive
83	mre11 (meiotic recombination 11)	DRSC22628		6.08e5	5.72e5	1.99e5	1.73e5	inactive
84	GstT4 (Glutathione S transferase T4)	DRSC19757		3733	5669	859	2416	inactive
85	CG1986	DRSC18197		13516		7568		inactive
86	Rilpl (Rab interacting lysosomal protein like)	DRSC18494		4486	7047	955	3424	inactive
87	eRF1 (eukaryotic translation release factor 1)	DRSC11779		2176		1600		inactive
88	meep	DRSC07948		2572		1744		inactive
89	DNAlig4 (DNA ligase 4)	DRSC19436		16797		7796		inactive
90	sced (scrambled)	DRSC04990		8570		2993		inactive
91	BomS3 (Bomanin Short 3)	DRSC21458		4.15e5	4.53e5	2.17e5	1.58e5	inactive
92	CG14408	DRSC19595		2550	6288	1069	1984	inactive
93	Nrt (Neurotactin)	DRSC11237		2236		971		inactive
